## Primary screen of a compound library

Each number is a percent effect as filed. The record does not define 0% and 100%; most values in the screen are far below 50% and negative numbers occur (in some assays of this library far below -100). This is an unselected part of the compounds tested. Two or more numbers in one place are separate tests of the same structure; such repeats can differ widely.

Mtb cholesterol medium: 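Whole-cell growth test on Mycobacterium tuberculosis, read after 4 days in a medium based on cholesterol and the lipid DPPC; the read-out is not stated. Concentration: 50 µM. Direction is inferred from retests: higher values go with more growth inhibition. About 69,000 compounds were tested under these conditions; 0.54% (about 370) showed 50% or more at least once.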
Mtb glucose medium: 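Phenotypic screen: M. tuberculosis growth, glucose 7H9 medium, 3 days; the read-out is not stated. Compounds at 50 µM. Direction is inferred from retests: higher values go with more growth inhibition. About 69,000 compounds were tested under these conditions; 1.1% (about 760) showed 50% or more at least once.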

Compound,Mtb cholesterol medium,Mtb glucose medium
NC(=O)CN1CCCC1c1ccccc1Br (stereo not shown),18.72,39.06
C[C@]1(O)CN(Cc2ccc(C(=O)O)cc2)CC[C@@H]1Oc1cccc(F)c1,-0.3492,17.81
CN1CCN(C(=O)N2CCCC(c3nccn3CC3CCC3)C2)CC1 (stereo not shown),23.51,-0.5333
O=C(O)c1ccccc1-n1cc(CN2CCOC(c3cc[nH]n3)C2)cn1 (stereo not shown),-3.253 & 0.4969,-7.422
COc1ccc(CC(=O)N2CC[C@@H](OC)[C@@H]2Cc2cccnc2)cc1.O=C(O)C(F)(F)F,13.92,18.38
Cc1cccc(C(C(=O)NCCn2cccc2)N(C)C)c1 (stereo not shown),0.9574,-0.3027
Cc1ccccc1-n1cnc(Cl)c1C(=O)O,-3.741,15.88
NS(=O)(=O)c1ccc(NCc2ccccc2)cc1C(F)(F)F,12.5,12.09
COCCN1CCCC(c2ncc(C(=O)N3CCOCC3)c(C)n2)C1 (stereo not shown),-9.586,-32.01
Cc1n[nH]c(C)c1CNC(=O)N(Cc1ccccc1)CC(C)(C)O,-4.754,0.01563 & 1.002
Cc1nc(C(C)(C)C)sc1C(=O)NCCNc1ncccc1C#N,-15.36,17.57
Cc1nc(N(C)C)cc(C2(C)CCNCC2)n1,6.504,-1.683
CC(=O)N1CCN(Cc2ccncc2)CC2(CC(=O)N(C)C2)C1.O=C(O)C(F)(F)F.O=C(O)C(F)(F)F (stereo not shown),0.7025 & -7.386,10.19
CCCS(=O)(=O)CC(=O)Nc1ccsc1,-23.63,-16.6 & 5.104
Cc1nn(C)c(N(C)C)c1CNCc1cccnc1,-12.28,-22.66
COc1cccnc1NC(=O)COc1ccc(F)cc1F,7.922,14.89 & 6.697
O=C(NCc1ccc(Cl)cc1)C1CCCN(c2ccc3nncn3n2)C1 (stereo not shown),-6.404,4.474
CCC(CO)NCc1ccc(-c2ccc(Cl)cc2)o1.Cl (stereo not shown),31.86,23.68 & 22.45
[H][C@@]12COC[C@@H](C(=O)Nc3cnccn3)[C@]1([H])CN(c1ncc(F)cn1)C2,-0.4613,-7.179 & -1.669
O=C(O)C(F)(F)F.O=C(O)C(F)(F)F.c1csc(CN2CCCC3(COCCN(c4cnccn4)C3)C2)c1 (stereo not shown),7.475 & -12.58,-23.8
CN(C)CCCNC(=O)CNC(=O)N1CCc2c([nH]c3ccccc23)C1,-30.32,-5.454
[H][C@]12CCN(C(=O)C3CC3)[C@@]1([H])CC[C@@H](COCc1csc(C)n1)O2,-24.01,-32.7
CCc1ncc(C(=O)N(C)Cc2cc(-c3ccncc3)no2)cn1,-71.47,-61.34
CC(C)(C)c1noc(-c2ccnc(-n3cnc(C(=O)O)c3)c2)n1,-28.09,-3.002 & -3.763
CC(=O)N1CCC(c2n[nH]cc2-c2ccnc(N)c2)C1 (stereo not shown),-5.723 & 8.767,27.74
CC(=O)NCC(=O)N1CCN(Cc2cccnc2)c2ncccc2C1,4.114 & -19.97,-8.602
[H][C@@]12COC[C@]1(COCC1CC1)CN(C(=O)c1ccnnc1)C2,1.467,4.257
Cc1cc(C(=O)N(C)Cc2cccs2)nc(N2CCCCC2)n1,4.265,24.74
COc1ccc(OCc2nc(C(=O)N3CCC(NC(C)=O)C3)co2)cc1 (stereo not shown),-20 & 2.126,-22.59
Cc1cccc(CN2CCN(Cc3ccccc3)CC(O)C2)n1 (stereo not shown),5.987,-14.37
Cn1cc(N2CC3(CCN(C(=O)c4cccn4C)CC3)OCC2=O)cn1,19.54 & -3.89,-19.05
CN1CCN(Cc2cn3c(n2)CN(Cc2cccnc2)CC3)CC1,-73.65,-27.23
CCc1ccc(CNC(=O)c2ccc(N3CCOC3=O)cc2)s1,29.28,16.87
Cc1ccc(CN2CCCC3(COCCN(Cc4c[nH]nn4)C3)C2)o1.O=C(O)C(F)(F)F.O=C(O)C(F)(F)F (stereo not shown),23.21,17.44
COCCN1CC2(CCN(Cc3ccco3)CC2)c2ccccc21,6.047,4.129 & 5.747
CC(C)N(C)Cc1nnc2n1CCCN(C(=O)c1ccco1)C2,20.13,7.611
O=C(NC1CCCC1)N1CCCC(c2nccn2Cc2ccncc2)C1 (stereo not shown),0.2399,-15.54 & 35.27
Cc1n[nH]c(C)c1Sc1ccccc1NC(=O)N1CCCC(C(N)=O)C1 (stereo not shown),9.471,26.09
CC(C)N(CC(N)=O)Cc1csc(-c2ncccn2)n1,4.089,0.5494 & -2.039
COc1cccc(CN(C)C(=O)CN2CCN(c3nccn3C)CC2)c1,-20.33,-6.483
c1cncc(-c2noc(CN3CCOC(Cn4cccn4)C3)n2)c1 (stereo not shown),9.775,24.59
Cc1cc(C(=O)NCc2c(C)nn(C)c2C)nc(N2CCCC2)n1,16.07,9.455
CCOC(=O)C1CCCN(c2nccc(-n3nc(C)cc3C)n2)C1 (stereo not shown),20.78,11.84
CN(Cc1ccsc1)C(=O)CNC(=O)N1CCc2ccccc2C1,-3.374,-28.39
Cc1ccc(CNC(=O)CCN2CCN(c3ccccn3)CC2)n1C,-32.33,-14.35 & -1.332
CC(C)c1nnc2ccc(N3CCCC(C(=O)Nc4nccs4)C3)nn12 (stereo not shown),2.743,-2.26
CCn1cnnc1CNC(=O)N1CCN(c2cccs2)CC1,2.293,5.935
Cc1cccc(-c2noc(CN3CCc4c(ncn4C4CC4)C3)n2)c1,-6.803,28.69 & 8.908
COc1cc(C(=O)N(Cc2cnn(C)c2)C(C)C)ccc1OCC(N)=O,-13.64,-14.19
[H][C@]12CC[C@]([H])(CN(Cc3[nH]cnc3C)C1)N(C(=O)CCNS(C)(=O)=O)C2,-20.21,-1.135 & -3.357
Cc1cnn(C2CCCN(C(=O)CCCOc3cccc(F)c3)C2)c1 (stereo not shown),-1.353,-12.81
Cc1nn(C)cc1S(=O)(=O)N[C@@H]1CC[C@@H](n2ccnc2C)[C@@H]1O,-14.56 & -1.384,-30.25
CN(Cc1noc(C2CC2)n1)C1CCN(Cc2nnc(C3CC3)o2)C1 (stereo not shown),-14.29,-12.65
COc1cccc2c3c(c(=O)[nH]c12)CC(C)(C)O3,15.12,20.12 & 5.449
CN1CCCC(c2cccc(CCC(=O)NCc3ccccn3)n2)C1 (stereo not shown),-23.06,-23.99
Cc1cc(N(C)C)nc(N2CCN(Cc3nccn3C)CC2)n1,-18.94,9.034
CCOc1cccc(NC(=O)c2cscn2)n1,3.501,11.82
O=C(NCCNC(=O)C1CC1)c1sccc1Br,-10.93,-1.248 & 5.201
CCS(=O)(=O)N1C[C@@H](O)[C@H](Oc2cccc(F)c2)C1,-10.07,5.841
CCOc1cc(CNC(=O)c2cc(-c3ccccn3)no2)ccn1,2.22,-4.892
CCC(C(=O)Nc1ccc2nc(C)oc2c1)N1CCCC1=O (stereo not shown),-22.78,-17.71
Cc1nc2cc(=O)[nH]n2c(C)c1CC(=O)Nc1cnn(C)c1,-13.17,-2.483 & -28.7
Cc1noc(C)c1S(=O)(=O)NCC(O)c1ccc2c(c1)CCO2 (stereo not shown),-43.32,-4.21
CCCN1CCCC2(CCN(c3nc(C)nc4ccsc34)C2)C1=O (stereo not shown),-4.938,21.15
CO[C@H]1CN(Cc2nc3ccccc3n2C)CC[C@@]12CCCO2,8.776 & 3.166,25.11
Cc1ccncc1C(=O)N1CCCC(C(=O)CCc2ccccc2)C1 (stereo not shown),9.452,2.789
Cc1ccc(CN(C(=O)NCC2CCS(=O)(=O)C2)C2CC2)o1 (stereo not shown),-6.256,-9.599
Cc1cccc(C(=O)NCCNCC2CNc3ccnn3C2)c1 (stereo not shown),9.99,25.4 & -5.317
Cc1nn(C)c(N2CCOCC2)c1CNC1CCc2cc(F)ccc21.Cl (stereo not shown),3.491,9.405
CNc1ccc(C2CN(c3nc(C)cc(C)n3)CCO2)nc1 (stereo not shown),13.11 & 0.9635,15.81
CC(C)(C)C(=O)NS(=O)(=O)c1ccc(C#N)c(C(F)(F)F)c1,-2.219,5.089
COC(=O)N1CCC(NC(=O)N2CCCC2c2ccsc2)CC1 (stereo not shown),0.7088,2.482 & -3.637
CCn1cc(C(=O)N(C)[C@@H]2CC[C@@H](N3CCCC3)[C@@H]2O)c(C)n1,-6.058 & -1.438,-28.42
CCS(=O)(=O)c1ncc(CN(C)C)n1Cc1ccccc1,11.05,11.64
Cn1nnc(NCc2ccccc2OCc2ccc(Cl)cc2)n1,18.74,44.94

The first 7 entries again:

* NC(=O)CN1CCCC1c1ccccc1Br (stereo not shown) : Mtb cholesterol medium: 18.72%; Mtb glucose medium: 39.06%
* C[C@]1(O)CN(Cc2ccc(C(=O)O)cc2)CC[C@@H]1Oc1cccc(F)c1 : Mtb cholesterol medium: -0.3492%; Mtb glucose medium: 17.81%
* CN1CCN(C(=O)N2CCCC(c3nccn3CC3CCC3)C2)CC1 (stereo not shown) : Mtb cholesterol medium: 23.51%; Mtb glucose medium: -0.5333%
* O=C(O)c1ccccc1-n1cc(CN2CCOC(c3cc[nH]n3)C2)cn1 (stereo not shown) : Mtb cholesterol medium: -3.253% & 0.4969%; Mtb glucose medium: -7.422%
* COc1ccc(CC(=O)N2CC[C@@H](OC)[C@@H]2Cc2cccnc2)cc1.O=C(O)C(F)(F)F : Mtb cholesterol medium: 13.92%; Mtb glucose medium: 18.38%
* Cc1cccc(C(C(=O)NCCn2cccc2)N(C)C)c1 (stereo not shown) : Mtb cholesterol medium: 0.9574%; Mtb glucose medium: -0.3027%
* Cc1ccccc1-n1cnc(Cl)c1C(=O)O : Mtb cholesterol medium: -3.741%; Mtb glucose medium: 15.88%

Source: ChEMBL document CHEMBL3988442, “University of Dundee, Small-Polar-MMV Screening Library” (2021).